Reference: paper doi:10.1101/2020.02.13.938316
No constants are given. Whether binding was seen depends on the method and setting. Binding seen in cells or lysates may run through a third protein. Binding calls can cover weak binding; strength is not graded here. Sequences can lack the tags named with a protein.

How the values were obtained:
[1] = biological target: T1, GFP-ATG8a (stable transgenic Arabidopsis line) (UniProt Q8LEM4); assay: co-IP
T1 sequence: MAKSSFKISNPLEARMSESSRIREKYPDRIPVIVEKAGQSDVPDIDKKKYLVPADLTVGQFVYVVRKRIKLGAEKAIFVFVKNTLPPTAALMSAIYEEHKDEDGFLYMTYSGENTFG

[2] = biological target: T2, GFP-ATG8a (transient expression in N. benthamiana) (UniProt Q8LEM4); assay: co-IP
T2 sequence: T1 sequence

Cucumber mosaic virus (CMV) 2b protein, from infection
binding [1]: binds

2b-RFP (Cucumber mosaic virus)
binding [2]: binds

Cucumber mosaic virus (CMV) coat protein CP, from infection
binding [1]: binds
